Reference: PMC11218507
Results are given in words; binding and its absence hold for the method and conditions named. In cells and extracts the contact can be indirect. For part of these data: A result given as binding can be weak or reduced; the word gives no strength. For part of these data: Sequences can lack the tags named with a protein.

The chains behind the UniProt entries cited, without tags or fusion partners. Where a name states a change or a piece, a line headed by the entry shows the natural chain unless it says otherwise.
UniProt Q9SP32: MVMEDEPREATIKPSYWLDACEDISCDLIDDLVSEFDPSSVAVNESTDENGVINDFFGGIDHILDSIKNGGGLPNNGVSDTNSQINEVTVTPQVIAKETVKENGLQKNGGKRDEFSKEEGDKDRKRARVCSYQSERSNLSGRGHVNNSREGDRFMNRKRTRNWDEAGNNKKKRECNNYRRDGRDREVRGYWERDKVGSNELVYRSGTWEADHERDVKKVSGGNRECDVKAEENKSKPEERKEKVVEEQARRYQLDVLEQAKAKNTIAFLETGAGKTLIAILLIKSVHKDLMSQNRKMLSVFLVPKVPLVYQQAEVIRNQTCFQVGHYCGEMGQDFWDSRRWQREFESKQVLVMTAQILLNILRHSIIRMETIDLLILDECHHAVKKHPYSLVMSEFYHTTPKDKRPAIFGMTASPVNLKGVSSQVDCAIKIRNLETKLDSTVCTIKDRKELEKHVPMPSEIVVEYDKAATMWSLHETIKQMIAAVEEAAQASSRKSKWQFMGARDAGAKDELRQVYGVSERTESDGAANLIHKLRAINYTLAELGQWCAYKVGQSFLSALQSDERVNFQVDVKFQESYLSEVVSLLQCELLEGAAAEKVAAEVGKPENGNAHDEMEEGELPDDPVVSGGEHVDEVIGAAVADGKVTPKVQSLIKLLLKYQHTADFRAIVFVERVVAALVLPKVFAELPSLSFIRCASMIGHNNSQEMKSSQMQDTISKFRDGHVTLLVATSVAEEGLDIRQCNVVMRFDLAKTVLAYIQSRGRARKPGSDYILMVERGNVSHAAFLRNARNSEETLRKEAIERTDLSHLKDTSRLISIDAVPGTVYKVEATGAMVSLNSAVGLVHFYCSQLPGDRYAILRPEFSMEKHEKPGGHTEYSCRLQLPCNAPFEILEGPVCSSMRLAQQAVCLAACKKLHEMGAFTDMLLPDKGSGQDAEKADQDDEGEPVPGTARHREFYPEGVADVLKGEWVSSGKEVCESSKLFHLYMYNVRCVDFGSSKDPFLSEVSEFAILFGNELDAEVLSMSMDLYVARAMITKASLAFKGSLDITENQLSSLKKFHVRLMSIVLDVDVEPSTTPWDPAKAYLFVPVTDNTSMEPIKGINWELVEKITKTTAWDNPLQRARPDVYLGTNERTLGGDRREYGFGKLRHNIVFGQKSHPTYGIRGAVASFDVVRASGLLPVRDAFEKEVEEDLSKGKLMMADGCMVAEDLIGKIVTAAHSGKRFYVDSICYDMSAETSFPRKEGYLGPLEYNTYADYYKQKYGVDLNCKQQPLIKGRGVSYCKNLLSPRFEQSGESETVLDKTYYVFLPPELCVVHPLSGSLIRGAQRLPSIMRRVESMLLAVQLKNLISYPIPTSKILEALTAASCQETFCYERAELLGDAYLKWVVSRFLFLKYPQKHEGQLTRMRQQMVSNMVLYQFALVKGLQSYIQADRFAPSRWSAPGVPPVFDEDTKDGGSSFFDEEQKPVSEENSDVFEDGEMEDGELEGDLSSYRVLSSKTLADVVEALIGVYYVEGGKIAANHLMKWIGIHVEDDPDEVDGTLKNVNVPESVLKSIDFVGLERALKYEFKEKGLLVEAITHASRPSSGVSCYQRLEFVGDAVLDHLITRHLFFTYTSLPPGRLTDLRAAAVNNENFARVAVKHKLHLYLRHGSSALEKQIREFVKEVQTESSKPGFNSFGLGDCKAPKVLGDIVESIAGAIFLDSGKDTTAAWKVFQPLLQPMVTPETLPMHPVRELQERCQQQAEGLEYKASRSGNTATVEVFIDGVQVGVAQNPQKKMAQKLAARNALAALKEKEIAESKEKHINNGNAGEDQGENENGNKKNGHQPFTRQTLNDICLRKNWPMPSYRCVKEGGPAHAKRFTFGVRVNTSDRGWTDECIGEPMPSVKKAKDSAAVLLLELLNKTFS
UniProt Q80H97: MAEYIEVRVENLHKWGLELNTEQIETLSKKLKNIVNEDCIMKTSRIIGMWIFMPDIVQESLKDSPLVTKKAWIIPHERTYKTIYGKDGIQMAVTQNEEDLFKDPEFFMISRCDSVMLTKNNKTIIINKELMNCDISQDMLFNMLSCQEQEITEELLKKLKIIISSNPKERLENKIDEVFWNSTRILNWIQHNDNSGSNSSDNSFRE

Experiments:
[1] = target: T1, AtHYL1 (as used in the co-IP with 24K:mRFP) (A. thaliana) (UniProt O04492); assay: co-IP; transitory expression in N. benthamiana leaves; beads with anti-HYL1 antibody (control: beads without the antibody); blots with anti-RFP and anti-HYL1
T1 sequence: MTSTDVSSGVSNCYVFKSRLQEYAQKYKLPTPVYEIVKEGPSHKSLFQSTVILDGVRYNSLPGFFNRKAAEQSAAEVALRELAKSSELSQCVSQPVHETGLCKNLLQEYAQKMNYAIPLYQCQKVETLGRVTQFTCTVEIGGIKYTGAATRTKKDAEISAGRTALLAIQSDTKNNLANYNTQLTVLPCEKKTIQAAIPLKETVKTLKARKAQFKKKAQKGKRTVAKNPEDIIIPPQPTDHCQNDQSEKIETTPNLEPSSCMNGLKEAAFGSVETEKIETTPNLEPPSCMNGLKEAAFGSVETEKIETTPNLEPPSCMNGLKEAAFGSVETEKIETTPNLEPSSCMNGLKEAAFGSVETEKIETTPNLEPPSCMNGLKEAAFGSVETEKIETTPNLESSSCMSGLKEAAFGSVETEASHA

CFP:AtDCL1 (A. thaliana) = CFP:AtDCL1 (A. thaliana) (UniProt Q9SP32); assay: co-IP; transient expression in N. benthamiana leaves; proteins extracted from enriched nuclei in RIPA buffer, sonicated; GFP-Trap overnight at 4°C; blots with anti-RFP and anti-GFP
AtSE:YFP (A. thaliana) = target: T2, AtSE:YFP (A. thaliana) (UniProt Q9ZVD0); assay: as above
T2 sequence: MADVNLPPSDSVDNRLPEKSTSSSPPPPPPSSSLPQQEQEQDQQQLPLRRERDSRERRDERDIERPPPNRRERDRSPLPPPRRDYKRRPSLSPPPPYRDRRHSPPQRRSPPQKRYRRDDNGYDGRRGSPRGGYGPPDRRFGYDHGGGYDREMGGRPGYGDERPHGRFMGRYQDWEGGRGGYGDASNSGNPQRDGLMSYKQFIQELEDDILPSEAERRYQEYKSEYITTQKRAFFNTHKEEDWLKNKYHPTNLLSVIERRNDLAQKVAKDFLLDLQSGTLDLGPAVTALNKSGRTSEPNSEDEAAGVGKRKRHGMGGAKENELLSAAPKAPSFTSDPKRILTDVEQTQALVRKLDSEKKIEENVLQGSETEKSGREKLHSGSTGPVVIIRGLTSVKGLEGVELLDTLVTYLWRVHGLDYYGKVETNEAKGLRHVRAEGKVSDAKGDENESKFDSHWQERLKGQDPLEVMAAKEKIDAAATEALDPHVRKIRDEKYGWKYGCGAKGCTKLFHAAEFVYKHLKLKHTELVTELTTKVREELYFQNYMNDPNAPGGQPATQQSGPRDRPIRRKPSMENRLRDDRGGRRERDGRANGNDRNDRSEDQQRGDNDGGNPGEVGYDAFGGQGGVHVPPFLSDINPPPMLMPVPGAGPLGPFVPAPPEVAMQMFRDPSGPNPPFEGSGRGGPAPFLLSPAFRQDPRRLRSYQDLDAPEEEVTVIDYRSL

[2] = target: N-mCitrine:AtDCL1 (DICER-LIKE 1, BiFC fusion) (A. thaliana) (UniProt Q9SP32); assay: split reporter; BiFC with N- and C-terminal regions of mCitrine; coagroinfiltration of N. benthamiana leaves with Fibrillarin-mRFP and p19; confocal microscopy of epidermal cells 3-4 days post-agroinfiltration
[3] = target: T3, N-mCitrine:AtHYL1 (HYPONASTIC LEAVES 1, BiFC fusion) (A. thaliana) (UniProt O04492); assay: as above
T3 sequence: T1 sequence

[4] = target: T4, N-mCitrine:AtSE (SERRATE, BiFC fusion) (A. thaliana) (UniProt Q9ZVD0); assay: as above
T4 sequence: T2 sequence

Q: Which binding [1] does the source give for 24K:mRFP (from UniProt Q80H97) here?
A: The binding was “binds”.

Q: And the binding (CFP:AtDCL1 (A. thaliana))?
A: Its binding is “no binding”.

Q: And the binding (AtSE:YFP (A. thaliana))?
A: The binding was “binds”.

Q: What does the source list for “C-mCitrine:24K (citrus psorosis virus 24K protein, BiFC fusion) (from UniProt Q80H97)”?
A: binding [2]: no binding; binding [3]: binds; binding [4]: binds
